This test is described as follows: qHTS Assay for Lipid Storage Modulators in Drosophila S3 Cells.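 On cell number change: cells counted by Cell Tracker Red CMTPX staining in the red channel.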 Particulars: BODIPY lipid droplet fluorescence, 18-24 h; for cell number change: measured here: cell count max response, cells fed with added oleic acid. In a few lines: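 Laser-scanning cytometry quantifies lipid droplet accumulation (500–530 nm total intensity; droplet/cell object ratio) in oleic acid-fed (400 uM added) Drosophila S3 cells treated with a concentration series. 20 uM Triacsin C defined 100% inhibition.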

Setting [1] is: measured here: cell number channel AC50, cells fed with added oleic acid.
Where [2] appears, read: measured here: lipid fluorescence (Fed channel) AC50, cells fed with added oleic acid.

Some of the results follow. These are further read-outs of the screen, such as a control signal, another cell line or another target. No call is given for them. The list favours compounds with an active or inconclusive main result. Words in brackets tell the shape of the fitted curve; partial curves, single points and poor fits give uncertain potencies.

As to `CCC(C)c1ccc(N(CC(=O)NC(C)(C)C)C(=O)CNC(=O)c2cccs2)cc1` (stereo not given), the cell number change turned out to be 64.3%. Moreover, the AC50 under setting [1] is 16.4 µM [rising, partial curve, poor fit].
As for `CCCCCCCN1C(N(C)C)=NC[C@@H]1Cc1ccccc1`, the cell number change was -30.2%. The concentration at half-maximal activity (AC50) under setting [1] was 9.2 µM [falling, partial curve, poor fit].
Take `Cc1ccc(OCC(=O)N/N=C/c2cn(Cc3ccccc3)c3ccccc23)cc1`: the cell number change was -6.83%.
On to `Cc1ccc(NC(=O)c2cc([N+](=O)[O-])ccc2N2CCOCC2)cc1S(=O)(=O)N1CCOCC1`, for which the cell number change is -48.4%. Besides, the AC50 under setting [1] was 20.6 µM [falling, partial curve].
Take `COCCNC(=S)N(CCO)Cc1cc2cc3c(cc2[nH]c1=O)OCCO3`: the cell number change is -8.73%. The AC50 under setting [2] is 29.1 µM [falling, single point].
For the compound `COc1ccccc1CNC(=O)c1ccc(OCc2c(C)noc2C)c(OC)c1`, the cell number change was found to be 53.6%. Moreover, under setting [1], the AC50 is 23.1 µM [rising, partial curve, poor fit].
Take `CC(=O)N1c2ccc(S(=O)(=O)NCC3CCC(C(=O)N4CCC(C)CC4)CC3)cc2CC1C` (stereo not given): the cell number change stood at 15.3%. Moreover, the AC50 under setting [2] is 29.1 µM [rising, single point].
For the compound `COc1ccc(NC(=O)c2cc(-c3ccco3)on2)cc1OC`, the cell number change worked out at 30.8%. Besides, the AC50 under setting [1] is 11.6 µM [rising, partial curve, poor fit].
Turning to `COc1cccc(-n2cnc3cccc(N)c32)c1`, the cell number change turned out to be 5.29%.
As to `COCCn1c(SCC(=O)Nc2cc(C(C)(C)C)nn2-c2ccccc2)nc2ccccc2c1=O`, the cell number change was -33.3%. The AC50 under setting [1] was 20.6 µM [falling, single point].
Consider `COc1ccc(/C=C2\SC(=S)NC2=O)cc1OS(=O)(=O)c1ccc(NC(C)=O)cc1`, for which the cell number change turned out to be 3.2%. Also, the AC50 under setting [1] was 5.8 µM [falling, single point].
On to `CCOC(=O)c1c(N)sn(-c2ccccc2C)c1=S`, for which the cell number change was -8.97%. The AC50 under setting [2] is 4.11 µM [falling, single point].
On to `O=C1CCC(C(=O)N2CCCCO2)CN1Cc1cccc(C(F)(F)F)c1` (stereo not given), for which the cell number change was determined as 6.8%.
Regarding `O=C(CN1C(=O)C2C3C=CC(C3)C2C1=O)N1CCc2ccccc2C1` (stereo not given), the cell number change is -26%. Besides, the AC50 under setting [1] is 1.64 µM [falling, full curve, poor fit].
On to `COc1cccc(CN2CC(C(=O)N3CCCCCC3)CCC2=O)c1` (stereo not given), for which the cell number change is 7.62%. Moreover, the AC50 under setting [2] was 0.0058 µM [rising, full curve, poor fit].
Regarding `O=C(CN1CCc2ccccc2C1)Nc1ccccc1N1CCCCCC1`, the cell number change was -40%. For the same compound, under setting [1], the AC50 is 32.6 µM [falling, single point]. Also, the AC50 under setting [2] was 0.411 µM [rising, full curve].
Regarding `C=C(C)CNC(=S)Nc1nc2c(cc1C(=O)OCC)CCCC2`, the cell number change came out at 31.7%. The AC50 under setting [1] was 7.31 µM [rising, partial curve]. Moreover, under setting [2], the AC50 is 3.26 µM [rising, single point].
As for `CCCCOc1ccc(OCCNC(=O)c2ccco2)cc1`, the cell number change was -5.71%.
Consider `COc1ccc(-n2nc(C(=O)NCCCN3CCOCC3)c3ccccc3c2=O)c(OC)c1`, for which the cell number change came to 5.07%. In addition, the concentration at half-maximal activity (AC50) under setting [2] was 29.1 µM [falling, single point].
Take `Cc1ccccc1-n1c(SC/C(O)=C(\C#N)c2nc3ccccc3[nH]2)nnc1-c1ccncc1`: the cell number change came out at 32.4%. Under setting [1], the AC50 was 0.0291 µM [rising, full curve, poor fit]. The AC50 under setting [2] was 9.2 µM [rising, single point].
As to `Cc1cc(S(=O)(=O)Nc2ccc(C(=O)NCC(c3ccccc3)N(C)C)cc2)ccc1F` (stereo not given), the cell number change is 11.3%.
With `CCOC(=O)/C=C(\C)Sc1cc(O)c2ccccc2c1O`, the cell number change is -59.2%. In addition, the AC50 under setting [1] was 23.1 µM [falling, single point]. In addition, the AC50 under setting [2] was 16.4 µM [falling, single point].
`Cc1c(C(=O)OCC(=O)NC2CCCCC2)oc2ccccc12`: the cell number change was determined as 6.83%. In addition, the AC50 under setting [2] is 0.82 µM [rising, full curve, poor fit].
On to `O=C(Cc1ccccc1Cl)Nc1ccc(S(=O)(=O)Nc2nccs2)cc1`, for which the cell number change was 19.2%. Moreover, the AC50 under setting [2] was 31.6 µM [rising, partial curve, poor fit].
`CC(C)N(CCCNC(=O)Cn1ncc2c([nH]c3ccccc32)c1=O)Cc1ccccc1`: the cell number change was 6.1%. In addition, the AC50 under setting [2] was 29.1 µM [rising, single point].
Turning to `COc1ccc(C)cc1NC(=O)c1ccc2c(c1)C(=O)N(Cc1ccncc1)C2=O`, the cell number change was -4.51%. Further, under setting [2], the AC50 was 0.517 µM [falling, single point].
As for `Clc1ccc(/C=N/Nc2nnc(Cl)c3ccccc23)cc1`, the cell number change was -9.27%. Besides, the AC50 under setting [1] was 4.11 µM [falling, single point]. Also, the AC50 under setting [2] is 5.8 µM [falling, single point].
`COc1ccc(NS(=O)(=O)c2ccc(N3CCCC3=O)cc2)cn1`: the cell number change came out at 18.7%. Besides, the half-maximal activity concentration (AC50) under setting [2] is 0.517 µM [rising, partial curve, poor fit].
For `COc1ccc(Cn2nc(C(=O)O)c3ccccc3c2=O)cc1F`, the cell number change came out at 17.9%.
Regarding `CN(C)CCCOc1ccc(Cl)cc1Br`, the cell number change was -3.45%. Also, under setting [2], the AC50 is 6.51 µM [rising, single point].
For the compound `CC(C)CNC(=O)CCCc1ccccc1`, under setting [2], the AC50 is 18.4 µM [rising, single point].
Turning to `OCCCN1CCN(CCCOc2ccccc2-c2ccccc2)CC1`, the cell number change was -4.6%. Further, the half-maximal activity concentration (AC50) under setting [2] was 6.51 µM [rising, single point].
Consider `O=C(/C=C/c1c[nH]c2ccccc12)c1ccccc1`, for which the cell number change was -45.6%. Besides, the AC50 under setting [1] is 25.9 µM [falling, single point].
Take `COc1cc2ccccc2cc1C(=O)Nc1nccs1`: the cell number change is -20.7%. Besides, the AC50 under setting [2] was 0.146 µM [falling, full curve, poor fit].
With `O=S(=O)(Nc1cccc(-n2cnnn2)c1)c1ccc(Cl)cc1`, the cell number change was found to be 8.73%.
On to `Cc1cc(NC(=O)CCC(=O)N(Cc2ccco2)C2(C(=O)NC3CCCC3)CCCCC2C)no1` (stereo not given), for which the cell number change is 16.7%. Moreover, the AC50 under setting [1] was 0.00517 µM [rising, full curve, poor fit].
`O=C(NC1CCCC1)C(c1ccncc1)N(C(=O)c1ccco1)c1ccccc1` (stereo not given): the cell number change is -18.1%. The AC50 under setting [2] was 0.58 µM [falling, single point].
With `COc1ccccc1/C=C/C=N/Nc1cccc(C(=O)O)c1`, the cell number change was -18.1%.
Still for that read-out and setting: then `CC1CN(C2=CC(=O)CCC2)CC(C)O1` (stereo not given), with 42.9%.
For the compound `COc1ccccc1C(=O)NCC(=O)N1CCN(S(=O)(=O)c2ccccc2C(F)(F)F)CC1`, the cell number change is -9.5%. In addition, under setting [2], the AC50 is 4.61 µM [falling, partial curve, poor fit].

Usually AC50 stands for the concentration at which the activity in the assay is half-maximal.

(Values after PubChem BioAssay AID2685 (National Center for Advancing Translational Sciences (NCATS), 2010).)
